For series [1], the system named is ANTI-FLAG M2 monoclonal antibody (mouse IgG), native (Mus musculus). Description: binding assay. Particulars: RNA with 5'-dA5 (1-5), Northwestern blot, antibody bound to FLAG-BAP on PVDF, purified native protein, protein details: SIGMA F3165 Lot 086K6012, label: 5'-biotin.
Series [2] concerns anti-FLAG mouse IgG, denatured (SDS-PAGE heavy and light chains) (Mus musculus). Description: binding assay. The following applies: RNA with 5'-dA5 (1-5), DNA at 6-9 and 35-38, 2'-OMe U10; Northwestern blot, 20 nM aptamer, 0.5 ug IgG after SDS-PAGE; no heavy or light chain signal; purified native protein; label: 5'-biotin; variant of MIG-m034.

The exact form of at least one protein or probe is not confirmed. For some of these results: No signal at the amounts used counts as a negative.

As for “AAAAACGCUGAAGAGAAGACGGAAGGAGACGAAGCGT [MIG-m042]”, the binding result in series [1] (LNA at C6 G7 C35 G36, 2'-OMe U9, 3'-dT37, 10 nM aptamer, variant of MIG-m034) is “binds”.
Take “AAAAAGCGCUGAAGAGAAGACGGAAGGAGACGAAGCGC [MIG-m041]”: the binding result in series [1] (DNA at 6-9 and 35-38, 2'-OMe U10, 10 nM (20 nM in Example 5) aptamer, variant of MIG-m034) is listed as “binds”; in series [2], “no binding”.
With “AAAAACGCUGAAGAGAAGACGGAAGGAGACGAAGCGT [MIG-m034]”, in series [1] (LNA at C6 G7 C35 G36, 3'-dT37, 20 nM aptamer), the binding result was “binds”.

These data come from US8852954.
